Laboratory results published in the supplement of paper PMC10849652.
This is one part of the list.

Amino acid sequences for entries named in this document (tags omitted). A change or cut given only in a name is not applied to a line headed by its entry.
UniProt Q9Y2R0: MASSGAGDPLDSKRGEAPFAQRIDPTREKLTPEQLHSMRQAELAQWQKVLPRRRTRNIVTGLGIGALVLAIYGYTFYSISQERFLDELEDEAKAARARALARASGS
UniProt Q5EBM0: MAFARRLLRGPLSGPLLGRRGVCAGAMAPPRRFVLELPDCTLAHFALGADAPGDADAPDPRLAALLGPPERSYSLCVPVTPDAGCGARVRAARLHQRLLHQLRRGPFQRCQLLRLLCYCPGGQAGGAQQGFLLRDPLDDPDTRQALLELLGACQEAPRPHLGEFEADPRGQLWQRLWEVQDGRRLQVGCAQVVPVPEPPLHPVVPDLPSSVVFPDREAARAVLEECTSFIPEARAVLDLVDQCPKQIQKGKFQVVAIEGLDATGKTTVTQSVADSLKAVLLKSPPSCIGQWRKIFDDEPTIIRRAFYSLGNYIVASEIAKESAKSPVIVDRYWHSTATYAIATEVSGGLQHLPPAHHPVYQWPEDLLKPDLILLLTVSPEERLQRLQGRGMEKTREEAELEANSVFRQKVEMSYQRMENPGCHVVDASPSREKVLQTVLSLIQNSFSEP
UniProt Q9GZY4: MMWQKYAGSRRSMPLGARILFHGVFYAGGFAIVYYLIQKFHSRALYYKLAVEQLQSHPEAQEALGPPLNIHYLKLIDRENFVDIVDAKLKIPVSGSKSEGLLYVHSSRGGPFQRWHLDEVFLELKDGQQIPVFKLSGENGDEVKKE
UniProt Q96BR5: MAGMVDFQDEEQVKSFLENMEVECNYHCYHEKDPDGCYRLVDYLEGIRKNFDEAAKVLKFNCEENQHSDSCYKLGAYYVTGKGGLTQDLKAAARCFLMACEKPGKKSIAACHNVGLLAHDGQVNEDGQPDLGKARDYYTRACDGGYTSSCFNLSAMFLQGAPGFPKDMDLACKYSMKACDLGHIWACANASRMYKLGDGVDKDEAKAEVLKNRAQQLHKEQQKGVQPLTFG
UniProt Q9NRP2: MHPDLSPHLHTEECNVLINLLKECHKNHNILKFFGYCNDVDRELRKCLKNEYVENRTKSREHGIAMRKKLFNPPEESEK
UniProt Q9Y2B0: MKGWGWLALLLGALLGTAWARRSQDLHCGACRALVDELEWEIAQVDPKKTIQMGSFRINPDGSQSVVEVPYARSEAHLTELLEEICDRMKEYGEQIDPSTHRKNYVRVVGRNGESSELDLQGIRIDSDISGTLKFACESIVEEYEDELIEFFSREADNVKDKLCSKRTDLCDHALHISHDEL
UniProt O15247: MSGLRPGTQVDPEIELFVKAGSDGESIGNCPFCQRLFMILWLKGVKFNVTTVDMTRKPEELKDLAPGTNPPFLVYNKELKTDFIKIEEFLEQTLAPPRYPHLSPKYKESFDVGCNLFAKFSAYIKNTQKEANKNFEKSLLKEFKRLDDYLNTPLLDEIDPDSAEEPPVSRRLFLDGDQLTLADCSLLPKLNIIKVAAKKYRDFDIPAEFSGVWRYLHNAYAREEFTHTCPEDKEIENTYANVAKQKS
UniProt O96005: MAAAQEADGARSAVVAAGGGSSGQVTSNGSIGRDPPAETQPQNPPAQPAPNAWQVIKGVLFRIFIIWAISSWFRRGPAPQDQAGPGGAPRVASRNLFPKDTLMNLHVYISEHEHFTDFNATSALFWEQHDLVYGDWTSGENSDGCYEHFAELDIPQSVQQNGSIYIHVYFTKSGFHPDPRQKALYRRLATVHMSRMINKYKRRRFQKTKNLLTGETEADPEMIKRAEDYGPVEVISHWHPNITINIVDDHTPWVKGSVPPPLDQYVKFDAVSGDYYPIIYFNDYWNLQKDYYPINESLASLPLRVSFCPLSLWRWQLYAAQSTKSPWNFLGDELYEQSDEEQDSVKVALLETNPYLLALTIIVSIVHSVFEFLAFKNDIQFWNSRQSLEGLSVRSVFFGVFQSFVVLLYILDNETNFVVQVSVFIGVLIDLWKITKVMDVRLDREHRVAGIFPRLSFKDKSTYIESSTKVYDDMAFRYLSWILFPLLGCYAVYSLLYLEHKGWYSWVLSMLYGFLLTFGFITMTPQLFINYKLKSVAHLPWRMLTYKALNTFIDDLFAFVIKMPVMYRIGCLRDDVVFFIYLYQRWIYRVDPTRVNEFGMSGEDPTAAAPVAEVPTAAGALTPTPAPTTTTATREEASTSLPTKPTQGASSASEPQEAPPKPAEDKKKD
UniProt P51798: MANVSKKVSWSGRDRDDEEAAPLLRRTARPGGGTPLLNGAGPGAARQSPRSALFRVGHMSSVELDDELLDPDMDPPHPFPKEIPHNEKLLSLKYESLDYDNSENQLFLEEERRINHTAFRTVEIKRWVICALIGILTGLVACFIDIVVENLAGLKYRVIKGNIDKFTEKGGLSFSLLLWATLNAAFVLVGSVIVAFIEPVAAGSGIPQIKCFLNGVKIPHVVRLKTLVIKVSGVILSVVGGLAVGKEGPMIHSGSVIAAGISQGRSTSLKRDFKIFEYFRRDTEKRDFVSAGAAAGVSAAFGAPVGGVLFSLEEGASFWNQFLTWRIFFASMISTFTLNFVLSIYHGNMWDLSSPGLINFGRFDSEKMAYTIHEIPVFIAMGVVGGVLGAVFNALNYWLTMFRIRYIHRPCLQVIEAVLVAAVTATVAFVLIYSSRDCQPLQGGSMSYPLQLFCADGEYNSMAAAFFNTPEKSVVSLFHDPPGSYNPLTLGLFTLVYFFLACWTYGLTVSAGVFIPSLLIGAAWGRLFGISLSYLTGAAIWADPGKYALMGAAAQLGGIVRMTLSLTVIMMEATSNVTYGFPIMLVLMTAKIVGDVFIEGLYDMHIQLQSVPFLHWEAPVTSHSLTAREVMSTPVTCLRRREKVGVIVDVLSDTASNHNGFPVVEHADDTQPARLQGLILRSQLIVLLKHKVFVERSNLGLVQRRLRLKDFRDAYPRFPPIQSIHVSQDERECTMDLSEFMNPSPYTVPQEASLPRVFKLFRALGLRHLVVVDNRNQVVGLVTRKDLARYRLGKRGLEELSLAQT
UniProt Q9NY35: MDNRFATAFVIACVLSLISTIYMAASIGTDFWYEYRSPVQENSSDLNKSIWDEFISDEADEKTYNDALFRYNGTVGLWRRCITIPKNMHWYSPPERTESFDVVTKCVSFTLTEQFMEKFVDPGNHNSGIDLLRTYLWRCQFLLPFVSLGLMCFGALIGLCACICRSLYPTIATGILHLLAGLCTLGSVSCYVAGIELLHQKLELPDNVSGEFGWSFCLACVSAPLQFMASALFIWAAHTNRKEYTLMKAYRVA
UniProt Q92600, whole entry, looked up: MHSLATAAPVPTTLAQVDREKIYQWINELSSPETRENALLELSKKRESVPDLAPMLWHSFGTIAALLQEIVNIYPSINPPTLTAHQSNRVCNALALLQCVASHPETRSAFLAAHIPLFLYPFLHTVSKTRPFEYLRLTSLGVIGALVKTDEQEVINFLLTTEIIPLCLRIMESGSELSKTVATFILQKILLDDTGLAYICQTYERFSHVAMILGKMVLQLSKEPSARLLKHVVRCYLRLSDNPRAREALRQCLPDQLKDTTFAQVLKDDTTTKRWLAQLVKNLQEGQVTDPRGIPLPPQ
UniProt Q14008: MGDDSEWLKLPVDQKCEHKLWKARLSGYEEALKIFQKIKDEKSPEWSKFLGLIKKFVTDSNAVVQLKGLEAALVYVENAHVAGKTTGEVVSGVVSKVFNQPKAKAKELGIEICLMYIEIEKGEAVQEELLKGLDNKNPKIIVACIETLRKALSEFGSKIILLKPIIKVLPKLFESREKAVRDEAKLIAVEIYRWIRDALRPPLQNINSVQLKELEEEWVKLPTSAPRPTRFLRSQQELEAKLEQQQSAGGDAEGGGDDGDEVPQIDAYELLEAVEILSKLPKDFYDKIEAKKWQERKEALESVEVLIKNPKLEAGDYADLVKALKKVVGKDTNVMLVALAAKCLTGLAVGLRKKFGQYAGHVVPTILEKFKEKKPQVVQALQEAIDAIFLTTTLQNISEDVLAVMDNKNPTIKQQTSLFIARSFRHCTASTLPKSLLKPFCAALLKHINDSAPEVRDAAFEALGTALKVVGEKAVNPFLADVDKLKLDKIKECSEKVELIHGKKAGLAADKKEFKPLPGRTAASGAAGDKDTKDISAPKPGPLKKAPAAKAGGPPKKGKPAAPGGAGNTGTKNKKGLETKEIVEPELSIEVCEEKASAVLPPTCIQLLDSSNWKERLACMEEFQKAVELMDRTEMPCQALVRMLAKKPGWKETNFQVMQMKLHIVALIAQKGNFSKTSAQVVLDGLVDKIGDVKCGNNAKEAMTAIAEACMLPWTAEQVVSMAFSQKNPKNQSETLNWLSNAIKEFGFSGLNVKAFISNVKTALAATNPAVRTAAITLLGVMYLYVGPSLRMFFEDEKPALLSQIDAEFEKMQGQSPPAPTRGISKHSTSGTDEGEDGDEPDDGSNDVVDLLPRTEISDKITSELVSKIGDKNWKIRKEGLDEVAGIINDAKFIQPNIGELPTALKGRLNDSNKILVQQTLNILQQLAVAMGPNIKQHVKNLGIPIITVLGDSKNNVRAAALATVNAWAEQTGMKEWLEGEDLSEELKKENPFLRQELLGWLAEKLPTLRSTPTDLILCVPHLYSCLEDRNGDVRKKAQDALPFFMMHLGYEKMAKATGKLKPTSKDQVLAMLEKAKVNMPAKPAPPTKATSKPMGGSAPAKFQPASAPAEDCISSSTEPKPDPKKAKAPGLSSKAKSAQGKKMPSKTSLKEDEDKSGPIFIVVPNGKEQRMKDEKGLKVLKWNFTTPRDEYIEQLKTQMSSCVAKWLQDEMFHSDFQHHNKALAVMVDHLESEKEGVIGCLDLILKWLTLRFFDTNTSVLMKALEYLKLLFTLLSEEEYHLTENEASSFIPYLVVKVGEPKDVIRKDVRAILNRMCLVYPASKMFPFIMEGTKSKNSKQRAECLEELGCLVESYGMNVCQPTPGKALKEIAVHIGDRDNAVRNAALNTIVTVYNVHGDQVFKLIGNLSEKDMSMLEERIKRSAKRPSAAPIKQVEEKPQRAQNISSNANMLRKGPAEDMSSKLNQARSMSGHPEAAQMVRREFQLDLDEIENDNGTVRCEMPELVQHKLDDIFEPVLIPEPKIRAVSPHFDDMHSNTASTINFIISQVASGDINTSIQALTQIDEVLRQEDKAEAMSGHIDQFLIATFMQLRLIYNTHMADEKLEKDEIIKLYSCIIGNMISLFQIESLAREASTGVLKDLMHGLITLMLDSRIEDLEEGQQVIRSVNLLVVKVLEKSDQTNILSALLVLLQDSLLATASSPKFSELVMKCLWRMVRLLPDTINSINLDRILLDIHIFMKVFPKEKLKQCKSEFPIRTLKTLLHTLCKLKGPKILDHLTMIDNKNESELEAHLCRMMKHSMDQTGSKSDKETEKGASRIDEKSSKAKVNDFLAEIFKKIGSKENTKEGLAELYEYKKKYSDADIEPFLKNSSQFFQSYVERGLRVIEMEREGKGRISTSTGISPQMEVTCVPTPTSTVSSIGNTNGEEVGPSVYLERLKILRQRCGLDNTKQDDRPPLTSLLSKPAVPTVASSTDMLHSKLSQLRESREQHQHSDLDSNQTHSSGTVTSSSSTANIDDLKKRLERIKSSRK
UniProt Q8N3C7: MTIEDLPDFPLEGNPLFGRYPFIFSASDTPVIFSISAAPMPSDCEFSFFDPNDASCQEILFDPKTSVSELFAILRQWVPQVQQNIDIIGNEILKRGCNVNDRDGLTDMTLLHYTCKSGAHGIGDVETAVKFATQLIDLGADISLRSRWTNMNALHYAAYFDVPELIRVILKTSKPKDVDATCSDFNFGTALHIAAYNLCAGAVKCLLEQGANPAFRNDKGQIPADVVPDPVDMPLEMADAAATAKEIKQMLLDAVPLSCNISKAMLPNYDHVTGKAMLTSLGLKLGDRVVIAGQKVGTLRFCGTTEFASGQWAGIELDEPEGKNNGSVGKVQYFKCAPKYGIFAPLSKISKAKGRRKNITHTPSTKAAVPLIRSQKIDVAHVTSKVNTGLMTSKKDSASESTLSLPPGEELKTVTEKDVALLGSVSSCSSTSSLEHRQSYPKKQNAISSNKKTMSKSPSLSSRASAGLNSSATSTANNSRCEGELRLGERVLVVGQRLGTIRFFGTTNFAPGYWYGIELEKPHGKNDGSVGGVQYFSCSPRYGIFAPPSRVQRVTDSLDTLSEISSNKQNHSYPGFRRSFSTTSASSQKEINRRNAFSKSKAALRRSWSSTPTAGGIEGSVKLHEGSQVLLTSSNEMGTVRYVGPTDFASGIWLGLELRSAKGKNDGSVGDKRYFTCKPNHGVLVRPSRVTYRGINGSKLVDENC
UniProt P06732: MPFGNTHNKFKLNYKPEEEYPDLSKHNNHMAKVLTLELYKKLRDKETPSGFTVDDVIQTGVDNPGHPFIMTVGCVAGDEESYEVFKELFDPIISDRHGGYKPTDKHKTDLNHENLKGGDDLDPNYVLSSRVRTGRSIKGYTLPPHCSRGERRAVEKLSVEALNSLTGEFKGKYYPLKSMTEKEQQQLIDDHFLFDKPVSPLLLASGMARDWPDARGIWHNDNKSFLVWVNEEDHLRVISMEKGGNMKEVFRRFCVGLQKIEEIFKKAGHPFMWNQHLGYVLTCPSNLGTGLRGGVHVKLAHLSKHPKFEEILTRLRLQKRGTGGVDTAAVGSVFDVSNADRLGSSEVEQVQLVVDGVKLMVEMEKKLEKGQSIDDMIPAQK

The targets below were run with c1cc(OCCN2CCCCC2)cc(-c2n[nH]c3ccc(-c4nnc[nH]4)cc23)c1 (assay: log2 fold change, soluble protein after heating vs DMSO (PISA); higher = thermal stabilisation; K562 cells, 10 uM, 30 min; active = over 0.2 and 3.5 SD of the protein, either way, in both replicates (recomputed)).
In short: (§1)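 K562 cells at 2×10^6 cells/mL were given 10 μM compound for 30 min. Aliquots then went through 3 min of heating across 48°C-58°C, were pooled, and were extracted in PBS with 0.5% NP-40 at 4°C, and the supernatant after 21,000xg for 90 min was quantified by TMTpro 16plex LC-MS/MS with channel sums equalised. Thermal stability relative to control samples, from duplicates, is given as log2 fold change.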

log2 fold change, inactive:
CHURC1 isoform 2 (UniProt Q8WUH1) -0.066
CMPK1 (UniProt P30085) -0.01
CHMP6 (UniProt Q96FZ7) 0.014
COA3 (UniProt Q9Y2R0) -0.067
CLPB isoform 2 (UniProt Q9H078) -0.029
CMPK2 (UniProt Q5EBM0) -0.025
CMC1 (UniProt Q7Z7K0) -0.014
COA1 (UniProt Q9GZY4) 0.004
CINP isoform 3 (UniProt Q9BW66) 0.008
COA7 (UniProt Q96BR5) -0.026
CMC2 (UniProt Q9NRP2) -0.015
CIAO3 (UniProt Q9H6Q4) -0.003
CKMT1A (UniProt P12532) -0.021
COL18A1 (UniProt P39060) 0.122
CNPY2 (UniProt Q9Y2B0) -0.016
CLIC2 (UniProt O15247) -0.039
CLPTM1 (UniProt O96005) -0.014
CLGN (UniProt O14967) -0.056
CLCN7 (UniProt P51798) -0.078
CNOT3 (UniProt O75175) -0.01
CLDND1 (UniProt Q9NY35) -0.097
CNOT9 isoform 2 (UniProt Q92600) -0.039
CIAPIN1 (UniProt Q6FI81) 0.004
CKAP5 (UniProt Q14008) -0.117
CMBL (UniProt Q96DG6) 0.004
CLIP4 (UniProt Q8N3C7) -0.099
CKM (UniProt P06732) -0.043
CMAS (UniProt Q8NFW8) -0.093
CIAO1 (UniProt O76071) 0.033
CLIC4 (UniProt Q9Y696) 0.006
CLCC1 (UniProt Q96S66) 0.004
CLIP1 isoform 1 (UniProt P30622) -0.006

What follows are targets tested with c1cn2cc(-c3ccc4cn[nH]c4c3)nc(Nc3ccc(N4CCOCC4)cc3)c2n1 [entospletinib] in the same assay as above.
In short: as §1

log2 fold change, inactive:
CHURC1 isoform 2 (UniProt Q8WUH1) -0.033
CMPK1 (UniProt P30085) 0.014
CHMP6 (UniProt Q96FZ7) 0.022
COA3 (UniProt Q9Y2R0) 0.041
CLPB isoform 2 (UniProt Q9H078) 0.002
CMPK2 (UniProt Q5EBM0) -0.033
CMC1 (UniProt Q7Z7K0) 0.055
COA1 (UniProt Q9GZY4) 0.03
CINP isoform 3 (UniProt Q9BW66) -0.004
COA7 (UniProt Q96BR5) -0.079
CMC2 (UniProt Q9NRP2) -0.022
CIAO3 (UniProt Q9H6Q4) -0.02
CKMT1A (UniProt P12532) 0.003
COL18A1 (UniProt P39060) 0.209
CNPY2 (UniProt Q9Y2B0) -0.001
CLIC2 (UniProt O15247) -0.008
CLPTM1 (UniProt O96005) -0.009
CLGN (UniProt O14967) -0.024
CNOT3 (UniProt O75175) 0.004
CLDND1 (UniProt Q9NY35) 0.104
CNOT9 isoform 2 (UniProt Q92600) -0.032
CIAPIN1 (UniProt Q6FI81) -0.087
CKAP5 (UniProt Q14008) 0.049
CMBL (UniProt Q96DG6) 0.008
CLIP4 (UniProt Q8N3C7) 0.043
CKM (UniProt P06732) -0.043
CMAS (UniProt Q8NFW8) 0.036
CIAO1 (UniProt O76071) 0.043
CLIC4 (UniProt Q9Y696) -0.026
CLCC1 (UniProt Q96S66) -0.023
CLIP1 isoform 1 (UniProt P30622) 0.011
